In the supplement of paper PMC10735217 one finds TEAD-luciferase reporter activity data, which are given here for 54 compounds.

The assay has as its system HEK293A TEAD-LUC reporter. In words: TEAD-luciferase reporter activity (YAP activation), robust Z score vs plate; higher = stronger YAP/TEAD activation. The conditions noted are these: 24 h. Background: A reporter such as luciferase makes a cellular process visible.

Where a name gives a salt, the structure may show the parent alone. The list shows a part of the results. This data set is noisy: repeats of one test often differ as much as different tests do.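 The human kidney-derived cells carry a stably integrated construct of eight TEAD-binding elements driving luciferase, read by luminescence in a drug-repurposing library screen. A compound counts as a hit when its signal is more than five robust Z scores above the plate mean.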

With `CC(C)Cc1ccc(-c2nc(-c3ccc(CN4CC(C(=O)O)C4)cc3)no2)cc1`, the TEAD-luciferase reporter activity (compound concentration: 200 nM) is inactive: -0.913, the TEAD-luciferase reporter activity (compound concentration: 2 uM) is inactive: -1.88 and the TEAD-luciferase reporter activity (compound concentration: 10 uM) was inactive: 2.37.
For `OC[C@H]1O[C@@H](n2cnc3c(NC4CCCC4)ncnc32)[C@H](O)[C@@H]1O`, in that order: inactive: -1.35, inactive: 0.629 and inactive: 0.114.
The matching figures for `N[C@H](Cc1nc2cc(Cl)ccc2n1CP(=O)(O)O)C(=O)O`: inactive: -1.61, inactive: -1.47 and inactive: 0.652.
For `CN(C)CCN1C(=O)c2cccc3cc(N)cc(c23)C1=O` [amonafide dihydrochloride], in that order: inactive: 0.597, inactive: -1.76 and inactive: -0.504.
As to `Clc1ccc2ccc(/C=C/c3cccc(Cn4ccc5cccc(CCc6nnn[nH]6)c54)c3)nc2c1`, the TEAD-luciferase reporter activity reads like this: (compound concentration: 200 nM) inactive: 0.546; (compound concentration: 2 uM) inactive: 0.253; (compound concentration: 10 uM) inactive: 2.88.
`Cn1c(=O)c2c(nc(NCC3CCCO3)n2Cc2cccc(Br)c2)n(C)c1=O` (configuration not stated): the TEAD-luciferase reporter activity was inactive: -0.557 (compound concentration: 200 nM), inactive: -1.15 (compound concentration: 2 uM) and inactive: -1.93 (compound concentration: 10 uM).
The matching figures for `CCOC(=O)Cc1cc(Cl)c(Oc2ccc(C(=O)NC(C)(C)C)cc2NS(=O)(=O)c2ccc(Cl)cc2)cc1F`: inactive: -0.296, inactive: -0.473 and inactive: -1.57.
For `CCN(CCCOc1ccc2c(Nc3cc(CC(=O)Nc4cccc(F)c4)[nH]n3)ncnc2c1)CCOP(=O)(O)O`, in that order: inactive: -1.98, inactive: -0.794 and inactive: -1.12.
For `O=C1O[C@H]([C@@H]2COC(c3ccccc3)O2)C(O)=C1O` (some centres not stated) [zilascorb], in that order: inactive: 0.634, inactive: 0.908 and inactive: 0.923.
As for `CC1(c2ccccc2)NCCc2ccccc21` (configuration not stated), the TEAD-luciferase reporter activity runs as follows: (compound concentration: 200 nM) inactive: 0.173; (compound concentration: 2 uM) inactive: -2.51; (compound concentration: 10 uM) inactive: 3.69.
`CN(C)Cc1ccccc1Sc1cccc(O)c1` [Moxifetin hydrogen maleate]: the TEAD-luciferase reporter activity (compound concentration: 200 nM) is inactive: 4.95, the TEAD-luciferase reporter activity (compound concentration: 2 uM) was inactive: -0.127 and the TEAD-luciferase reporter activity (compound concentration: 10 uM) was inactive: -1.81.
For `Cn1nc(C(=O)NCCN2CCOCC2)cc1-c1cnc2ccccc2c1`, in that order: inactive: 1.27, inactive: -0.611 and inactive: -0.991.
For `C[C@@H](NC(=O)c1ccc(Br)cc1NS(=O)(=O)c1cccc2nccnc12)c1ccc(F)cc1F`, in that order: inactive: 3.12, inactive: -0.533 and inactive: -1.89.
Turning to `COc1c(OC[C@@H](O)CN2CCOCC2)ccc2c1N=C(NC(=O)c1cccnc1C)N1CCN=C21`, the TEAD-luciferase reporter activity is inactive: 0.209 (compound concentration: 200 nM) and inactive: 0.313 (compound concentration: 10 uM).
Turning to `O=C(O)c1c[nH]c2cc(Cl)c(-c3ccc(C4(O)CCC4)cc3)cc12`, the TEAD-luciferase reporter activity is, setting by setting: (compound concentration: 200 nM) inactive: 1.07; (compound concentration: 2 uM) inactive: 0.751; (compound concentration: 10 uM) inactive: -1.48.
In the case of `CNC(=O)C[C@@H](N)C(=O)N[C@@H](C(=O)N[C@@H]1C(=O)N2[C@@H]1SC(C)(C)[C@@H]2C(=O)O)c1ccc(O)cc1` [Aspoxicillin trihydrate], the TEAD-luciferase reporter activity (compound concentration: 2 uM) is inactive: -0.623.
Turning to `CNC(=O)C[C@@H](N)C(=O)N[C@@H](C(=O)N[C@@H]1C(=O)N2[C@@H]1SC(C)(C)[C@@H]2C(=O)O)c1ccc(O)cc1` [Aspoxicillin], the TEAD-luciferase reporter activity by setting is: (compound concentration: 200 nM) inactive: -1.46; (compound concentration: 10 uM) inactive: 0.131.
With `CCOC(=O)C1=C(C)NC(C)=C(C(=O)OC)C1c1cccc(Cl)c1Cl` (configuration not stated) [felodipine patch], under “compound concentration: 2 uM”, the TEAD-luciferase reporter activity is inactive: -0.717.
Turning to `CCOC(=O)C1=C(C)NC(C)=C(C(=O)OC)C1c1cccc(Cl)c1Cl` (configuration not stated) [felodipine patch, Pierre Fabre], the TEAD-luciferase reporter activity is, setting by setting: (compound concentration: 200 nM) inactive: -2.2; (compound concentration: 10 uM) inactive: -1.28.
Turning to `O=C(O)Cc1ccc(CCNS(=O)(=O)c2ccc(Cl)cc2)cc1` [Daltroban], the TEAD-luciferase reporter activity (compound concentration: 200 nM) was inactive: 0.856, the TEAD-luciferase reporter activity (compound concentration: 2 uM) is inactive: -0.894 and the TEAD-luciferase reporter activity (compound concentration: 10 uM) was inactive: 0.476.
The matching figures for `OC1C(O)C(O)C(O)C(O)C1O` (configuration not stated) [Inositol]: inactive: -0.785, inactive: 0.357 and inactive: -0.0874.
`CC(C)CC(=O)Nc1cc(-c2ccc(C(N)=O)cc2C(=O)O)cc(C2CC(C)(c3ccccc3)c3cc(C(=N)N)ccc3N2)c1` (configuration not stated): the TEAD-luciferase reporter activity runs as follows: (compound concentration: 200 nM) inactive: -1.58; (compound concentration: 2 uM) inactive: -0.237; (compound concentration: 10 uM) inactive: -0.845.
For `C[C@@H]1CC[C@@]2(NC1)O[C@H]1C[C@H]3[C@@H]4CC=C5C[C@@H](O[C@@H]6O[C@H](CO)[C@@H](O[C@@H]7O[C@@H](C)[C@H](O)[C@@H](O)[C@H]7O)[C@H](O)[C@H]6O[C@@H]6O[C@@H](C)[C@H](O)[C@@H](O)[C@H]6O)CC[C@]5(C)[C@H]4CC[C@]3(C)[C@H]1[C@@H]2C` [Solamargine], in that order: inactive: -0.807, inactive: -0.391 and inactive: 0.0535.
For `O=C(NCCN1CCOCC1)Nc1nc2ccc(Sc3nnc4ccc(-c5ccc(F)cc5)nn34)cc2s1`, in that order: inactive: 0.565, inactive: -0.415 and inactive: -1.46.
As to `CN/C(=C\[N+](=O)[O-])NCCSCc1csc(CN(C)C)n1` [nizatidine], the TEAD-luciferase reporter activity (compound concentration: 2 uM) is inactive: 0.546.
`CN/C(=C\[N+](=O)[O-])NCCSCc1csc(CN(C)C)n1`: the TEAD-luciferase reporter activity (compound concentration: 200 nM) is inactive: -1.06 and the TEAD-luciferase reporter activity (compound concentration: 10 uM) is inactive: 0.0833.
For `CC(C)C(=O)OC[C@H]1O[C@H](O[C@H]2O[C@H](COC(=O)C(C)C)[C@@H](O)[C@H](O)[C@H]2O)[C@H](O)[C@@H](O)[C@@H]1O`, the TEAD-luciferase reporter activity reads like this: (compound concentration: 200 nM) inactive: -0.178; (compound concentration: 2 uM) inactive: 0.137; (compound concentration: 10 uM) inactive: -0.465.
For the compound `CCC(=O)c1ccc(F)c([C@@H]2C[C@@H]2NC(=O)Nc2ccc(C#N)cn2)c1O`, the TEAD-luciferase reporter activity (compound concentration: 200 nM) was inactive: -1.3, the TEAD-luciferase reporter activity (compound concentration: 2 uM) was inactive: -0.998 and the TEAD-luciferase reporter activity (compound concentration: 10 uM) is inactive: 0.971.
For `NCCCCCN`, in that order: inactive: -0.621, inactive: -1.8 and inactive: -0.806.
For `[N-]=[N+]=N[C@@H]1C[C@@H](CO)O[C@H]1n1ccc(=O)[nH]c1=O`, in that order: inactive: -1.3, inactive: -0.0987 and inactive: 0.366.
Turning to `C[C@@H](O)CNC(C)(C)CC(=O)N[C@@H]1CCc2ccccc2N(Cc2ccc(-c3ccccc3-c3nn[nH]n3)cc2)C1=O`, the TEAD-luciferase reporter activity is, setting by setting: (compound concentration: 200 nM) inactive: -1.02; (compound concentration: 2 uM) inactive: 0.366; (compound concentration: 10 uM) inactive: -1.25.
`CN1CCCCC12Cc1ccccc1CN(C(=O)c1ccccc1)C2` (configuration not stated): the TEAD-luciferase reporter activity is, setting by setting: (compound concentration: 200 nM) inactive: -0.283; (compound concentration: 10 uM) active: 5.08.
For `Cc1ccc(CN2CCC3(CC2)NC(=O)c2ccccc2O3)cc1`, in that order: inactive: -2.58 and inactive: 1.54.
Regarding `O=C(Nc1cccc(C2=NCCN2)c1)Nc1cccc(C2=NCCN2)c1`, the TEAD-luciferase reporter activity was inactive: -0.542 (compound concentration: 200 nM), inactive: -1.18 (compound concentration: 2 uM) and inactive: -2.75 (compound concentration: 10 uM).
For `COc1cc(C(=O)N(C(C)C)C(C)C)ccc1OCCCCCOc1ccc(C(=N)N)cc1`, in that order: inactive: -2.22, inactive: -1.01 and inactive: -1.44.
For `CCOC(=O)[C@H](CCc1ccccc1)N[C@@H](C)C(=O)N1N=C(C(C)(C)C)S[C@H]1C(=O)O`, in that order: inactive: -0.365, inactive: -1.64 and inactive: 0.258.
For `CC(C)(O)c1cccn2c(C3(c4ccc(Cl)cc4)CC3)nnc12`, in that order: inactive: -0.69, inactive: -1.63 and inactive: -1.83.
On to `CC(=O)N[C@H]1CC(=O)N(c2ccc(OCc3cccc(F)c3)cc2)C1` [Sembragiline], for which the TEAD-luciferase reporter activity by setting is: (compound concentration: 200 nM) inactive: 1.12; (compound concentration: 2 uM) inactive: 0.841; (compound concentration: 10 uM) inactive: 0.781.
The matching figures for `CC(CN1CCN(CCOCCO)CC1)CN1c2ccccc2Sc2ccccc21` (configuration not stated): inactive: -1.66, inactive: 0.668 and inactive: -0.464.
The matching figures for `CCCCCCCCO` [1-Octanol]: inactive: 0.8, inactive: -0.358 and inactive: -0.97.
The matching figures for `Clc1ccc(-c2cccc(N3CCNCC3)n2)cc1Cl`: inactive: 0.757, inactive: -1.01 and inactive: -0.3.
As to `CC(=O)NC[C@H]1CN(c2ccc(S(C)=O)cc2)C(=O)O1` (some centres not stated), the TEAD-luciferase reporter activity runs as follows: (compound concentration: 200 nM) inactive: -0.362; (compound concentration: 2 uM) inactive: 1.43; (compound concentration: 10 uM) inactive: -0.485.
The matching figures for `CCC1C(=O)NC(=O)C1(C)c1ccccc1` (configuration not stated): inactive: -0.106, inactive: -0.115 and inactive: 0.377.
Consider `NS(=O)(=O)OCCCCCCCOS(N)(=O)=O`, for which the TEAD-luciferase reporter activity by setting is: (compound concentration: 200 nM) inactive: -1.12; (compound concentration: 2 uM) inactive: 0.279; (compound concentration: 10 uM) inactive: -0.997.
For `COc1cc(C(=O)OCc2cccc(COC(=O)c3cc(OC)c(OC)c(OC)c3)n2)cc(OC)c1OC` [pirozadil], in that order: inactive: 2.06, inactive: 0.0152 and inactive: 0.188.
As to `O=C(O)c1c(O)c(-c2ccccc2)nc2ccccc12`, for the setting “compound concentration: 2 uM”, the TEAD-luciferase reporter activity is inactive: -0.239.
Regarding `O=C(O)c1c(O)c(-c2ccccc2)nc2ccccc12` [3-Hydroxy-2-phenylquinoline-4-carboxylic acid], the TEAD-luciferase reporter activity is, setting by setting: (compound concentration: 200 nM) inactive: -0.967; (compound concentration: 10 uM) inactive: -0.995.
`COc1cccc(Nc2c(C(N)=O)cnc3c(C)cc(S(=O)(=O)c4cccc(C(=O)N(C)C)c4)cc23)c1`: the TEAD-luciferase reporter activity is inactive: -0.546 (compound concentration: 200 nM), inactive: -2.39 (compound concentration: 2 uM) and inactive: -1.36 (compound concentration: 10 uM).
Consider `CC[C@H]1O[C@@H](n2cnc3c(=O)[nH]cnc32)[C@H](O)[C@@H]1O.N[C@@H](Cc1c[nH]c2ccc(O)cc12)C(=O)O` [Triptosine], for which the TEAD-luciferase reporter activity (compound concentration: 200 nM) is inactive: 1.99, the TEAD-luciferase reporter activity (compound concentration: 2 uM) is inactive: 0.194 and the TEAD-luciferase reporter activity (compound concentration: 10 uM) is inactive: 0.11.
The matching figures for `CCCCOC(=O)NS(=O)(=O)c1ccccc1-c1ccc(Cn2c(CCCC)nc3cc(NC(=O)CCCC)c(C)nc32)cc1`: inactive: -0.996, inactive: -0.692 and inactive: 0.242.
The matching figures for `CCn1cc(-c2ccnc3[nH]c(-c4cccc(CN(C)C)c4)cc23)c(-c2ccc(NC(=O)N(C)C)cc2)n1`: inactive: 0.69, inactive: -1.41 and inactive: 1.23.
Take `c1cc(-c2cnn3cc(-c4ccc(OCCN5CCCCC5)cc4)cnc23)ccn1` [Compound C]: the TEAD-luciferase reporter activity was inactive: -0.687 (compound concentration: 200 nM), inactive: 2.16 (compound concentration: 2 uM) and inactive: -0.104 (compound concentration: 10 uM).
The matching figures for `NC1CCN(c2c(F)cc3c(=O)c(C(=O)O)cn4c3c2Oc2ccccc2-4)C1` (configuration not stated): inactive: -1.55, active: 16.4 and active: 5.15.
For `C=CC1=C(C(=O)O)N2C(=O)[C@@H](NC(=O)C(N=O)c3csc(N)n3)[C@H]2SC1` (some centres not stated), the TEAD-luciferase reporter activity was active: 8.92 (compound concentration: 200 nM), inactive: -1.4 (compound concentration: 2 uM) and inactive: 2.57 (compound concentration: 10 uM).
